# The other results are listed elsewhere or left out.
# B1: Drgal1 (Danio rerio) (protein)
# chain: MAGVLIQNMSFKVGQTLTITGVPKPDSTNFAINIGHSPEDIALHMNPRFDAHGDQCTIVCNSFQSGSWCEEHRDDNFPFIQDKEFQIKITFTNEEFLVTLPDGSEIHFPNRQGSEKYKYMYFEGEVRIQGVEIK
# Tests used:
# Assay in all cases: glycan array binding signal (z-score within array); higher = stronger binding
# Details in all cases: glycan notation: IUPAC condensed, linker removed
# [1] = biological target: Fuc(a1-2)Gal(b1-4)[Fuc(a1-3)]GlcNAc
# How it was run: (§1)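 Arrays were curated from the Consortium for Functional Glycomics database, 3228 in total, and kept only where the protein sequence was available. Binding is expressed as a within-array Z-score. This score was averaged across arrays of the same protein sequence at different concentrations or buffers and across linkers, and negative values can be read as non-binding.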
# [2] = biological target: Fuc(a1-2)Gal(b1-4)[Fuc(a1-3)]GlcNAc(b1-2)Man(a1-3)[Fuc(a1-2)Gal(b1-4)[Fuc(a1-3)]GlcNAc(b1-2)Man(a1-6)]Man(b1-4)GlcNAc(b1-4)[Fuc(a1-6)]GlcNAc
# How it was run: as §1
# [3] = biological target: Fuc(a1-2)Gal(b1-4)[Fuc(a1-3)]GlcNAc(b1-2)[Fuc(a1-2)Gal(b1-4)[Fuc(a1-3)]GlcNAc(b1-4)]Man(a1-3)[Fuc(a1-2)Gal(b1-4)[Fuc(a1-3)]GlcNAc(b1-2)Man(a1-6)]Man(b1-4)GlcNAc(b1-4)GlcNAc
# How it was run: as §1
# [4] = biological target: Fuc(a1-2)Gal(b1-4)[Fuc(a1-3)]GlcNAc(b1-3)Gal(b1-4)[Fuc(a1-3)]GlcNAc
# How it was run: as §1
# [5] = biological target: Fuc(a1-2)Gal(b1-4)[Fuc(a1-3)]GlcNAc(b1-3)Gal(b1-4)[Fuc(a1-3)]GlcNAc(b1-3)Gal(b1-4)[Fuc(a1-3)]GlcNAc
# How it was run: as §1
# [6] = biological target: Fuc(a1-2)Gal(b1-4)[Fuc(a1-3)]GlcNAc(b1-3)GalNAc
# How it was run: as §1
# [7] = biological target: Fuc(a1-2)Gal(b1-4)[Fuc(a1-3)]GlcNAc(b1-3)[Neu5Ac(a2-6)Gal(b1-4)GlcNAc(b1-6)]Gal(b1-4)Glc
# How it was run: as §1
# [8] = biological target: Fuc(a1-2)Gal3S(b1-4)GlcNAc
# How it was run: as §1
# [9] = biological target: Fuc(a1-2)Gal6S(b1-3)GlcNAc
# How it was run: as §1
# [10] = biological target: Fuc(a1-2)Gal6S(b1-3)GlcNAc6S
# How it was run: as §1
# Fuc(a1-2)Gal6S(b1-4)Glc = biological target: Fuc(a1-2)Gal6S(b1-4)Glc
# How it was run: as §1
# [11] = biological target: Fuc(a1-2)Gal6S(b1-4)Glc6S
# How it was run: as §1
# Fuc(a1-2)[Gal(a1-3)]Gal = biological target: Fuc(a1-2)[Gal(a1-3)]Gal
# How it was run: as §1
# [12] = biological target: Fuc(a1-2)[Gal(a1-3)]Gal(b1-3)GalNAc
# How it was run: as §1
# [13] = biological target: Fuc(a1-2)[Gal(a1-3)]Gal(b1-3)GalNAc(b1-3)Gal(a1-4)Gal(b1-4)Glc
# How it was run: as §1
# [14] = biological target: Fuc(a1-2)[Gal(a1-3)]Gal(b1-3)GlcNAc
# How it was run: as §1
# [15] = biological target: Fuc(a1-2)[Gal(a1-3)]Gal(b1-3)GlcNAc(b1-2)Man(a1-3)[Fuc(a1-2)[Gal(a1-3)]Gal(b1-3)GlcNAc(b1-2)Man(a1-6)]Man(b1-4)GlcNAc(b1-4)GlcNAc
# How it was run: as §1
# [16] = biological target: Fuc(a1-2)[Gal(a1-3)]Gal(b1-3)GlcNAc(b1-2)Man(a1-3)[Fuc(a1-2)[Gal(a1-3)]Gal(b1-3)GlcNAc(b1-2)Man(a1-6)]Man(b1-4)GlcNAc(b1-4)[Fuc(a1-6)]GlcNAc
# How it was run: as §1
# [17] = biological target: Fuc(a1-2)[Gal(a1-3)]Gal(b1-3)GlcNAc(b1-3)GalNAc
# How it was run: as §1
# [18] = biological target: Fuc(a1-2)[Gal(a1-3)]Gal(b1-3)GlcNAc(b1-6)GalNAc
# How it was run: as §1
# [19] = biological target: Fuc(a1-2)[Gal(a1-3)]Gal(b1-4)Glc
# How it was run: as §1
# [20] = biological target: Fuc(a1-2)[Gal(a1-3)]Gal(b1-4)GlcNAc
# How it was run: as §1
# [21] = biological target: Fuc(a1-2)[Gal(a1-3)]Gal(b1-4)GlcNAc(b1-2)Man
# How it was run: as §1
# [22] = biological target: Fuc(a1-2)[Gal(a1-3)]Gal(b1-4)GlcNAc(b1-2)Man(a1-3)[Fuc(a1-2)[Gal(a1-3)]Gal(b1-4)GlcNAc(b1-2)Man(a1-6)]Man(b1-4)GlcNAc(b1-4)GlcNAc
# How it was run: as §1
# [23] = biological target: Fuc(a1-2)[Gal(a1-3)]Gal(b1-4)GlcNAc(b1-2)Man(a1-3)[Fuc(a1-2)[Gal(a1-3)]Gal(b1-4)GlcNAc(b1-2)Man(a1-6)]Man(b1-4)GlcNAc(b1-4)[Fuc(a1-6)]GlcNAc
# How it was run: as §1
# [24] = biological target: Fuc(a1-2)[Gal(a1-3)]Gal(b1-4)GlcNAc(b1-3)GalNAc
# How it was run: as §1
# [25] = biological target: Fuc(a1-2)[Gal(a1-3)]Gal(b1-4)GlcNAc(b1-3)[Fuc(a1-2)[Gal(a1-3)]Gal(b1-4)GlcNAc(b1-6)]GalNAc
# How it was run: as §1
# [26] = biological target: Fuc(a1-2)[Gal(a1-3)]Gal(b1-4)GlcNAc(b1-6)GalNAc
# How it was run: as §1
# [27] = biological target: Fuc(a1-2)[Gal(a1-3)]Gal(b1-4)[Fuc(a1-3)]Glc
# How it was run: as §1
# [28] = biological target: Fuc(a1-2)[Gal(a1-3)]Gal(b1-4)[Fuc(a1-3)]GlcNAc
# How it was run: as §1
# [29] = biological target: Fuc(a1-2)[Gal(a1-3)]Gal(b1-4)[Fuc(a1-3)]GlcNAc(b1-3)GalNAc
# How it was run: as §1
# [30] = biological target: Fuc(a1-2)[Gal(a1-4)]Gal(b1-4)GlcNAc
# How it was run: as §1
# [31] = biological target: Fuc(a1-2)[GalNAc(a1-3)]Gal
# How it was run: as §1
# [32] = biological target: Fuc(a1-2)[GalNAc(a1-3)]Gal(b1-3)GalNAc(a1-3)[Fuc(a1-2)]Gal(b1-4)GlcNAc
# How it was run: as §1
# [33] = biological target: Fuc(a1-2)[GalNAc(a1-3)]Gal(b1-3)GalNAc(b1-3)Gal(a1-4)Gal(b1-4)Glc
# How it was run: as §1
# [34] = biological target: Fuc(a1-2)[GalNAc(a1-3)]Gal(b1-3)GlcNAc
# How it was run: as §1
# [35] = biological target: Fuc(a1-2)[GalNAc(a1-3)]Gal(b1-3)GlcNAc(b1-2)Man(a1-3)[Fuc(a1-2)[GalNAc(a1-3)]Gal(b1-3)GlcNAc(b1-2)Man(a1-6)]Man(b1-4)GlcNAc(b1-4)GlcNAc
# How it was run: as §1
# [36] = biological target: Fuc(a1-2)[GalNAc(a1-3)]Gal(b1-3)GlcNAc(b1-2)Man(a1-3)[Fuc(a1-2)[GalNAc(a1-3)]Gal(b1-3)GlcNAc(b1-2)Man(a1-6)]Man(b1-4)GlcNAc(b1-4)[Fuc(a1-6)]GlcNAc
# How it was run: as §1
binder,measurement,setting,value
B1,glycan array binding signal (z-score),[1],-0.453
same,glycan array binding signal (z-score),[2],-0.112
same,glycan array binding signal (z-score),[3],-0.314
same,glycan array binding signal (z-score),[4],-0.06
same,glycan array binding signal (z-score),[5],-0.707
same,glycan array binding signal (z-score),[6],-0.382
same,glycan array binding signal (z-score),[7],-0.519
same,glycan array binding signal (z-score),[8],0.18
same,glycan array binding signal (z-score),[9],0.478
same,glycan array binding signal (z-score),[10],0.365
same,glycan array binding signal (z-score),Fuc(a1-2)Gal6S(b1-4)Glc,0.19
same,glycan array binding signal (z-score),[11],-0.797
same,glycan array binding signal (z-score),Fuc(a1-2)[Gal(a1-3)]Gal,0.491
same,glycan array binding signal (z-score),[12],0.013
same,glycan array binding signal (z-score),[13],0.079
same,glycan array binding signal (z-score),[14],-0.397
same,glycan array binding signal (z-score),[15],-0.061
same,glycan array binding signal (z-score),[16],-0.371
same,glycan array binding signal (z-score),[17],-0.568
same,glycan array binding signal (z-score),[18],0.084
same,glycan array binding signal (z-score),[19],-0.074
same,glycan array binding signal (z-score),[20],0.185
same,glycan array binding signal (z-score),[21],-0.129
same,glycan array binding signal (z-score),[22],-0.079
same,glycan array binding signal (z-score),[23],-0.098
same,glycan array binding signal (z-score),[24],0.04
same,glycan array binding signal (z-score),[25],0.226
same,glycan array binding signal (z-score),[26],-0.867
same,glycan array binding signal (z-score),[27],-0.54
same,glycan array binding signal (z-score),[28],0.086
same,glycan array binding signal (z-score),[29],-0.367
same,glycan array binding signal (z-score),[30],0.347
same,glycan array binding signal (z-score),[31],-0.457
same,glycan array binding signal (z-score),[32],-0.091
same,glycan array binding signal (z-score),[33],-0.262
same,glycan array binding signal (z-score),[34],0.247
same,glycan array binding signal (z-score),[35],-0.585
same,glycan array binding signal (z-score),[36],-0.55

# Shown with tabs: part of the list above.
binder	measurement	setting	value
B1	glycan array binding signal (z-score)	[9]	0.478
same	glycan array binding signal (z-score)	[26]	-0.867
same	glycan array binding signal (z-score)	[27]	-0.54

# Source: the supplement of paper PMC8728848
